Reference: publication doi:10.1101/2024.01.10.574988
No constants are given. Whether binding was seen depends on the method and setting. A result given as binding can be weak or reduced; the word gives no strength.

The chains behind the UniProt entries cited, without tags or fusion partners. Where a name states a change or a piece, a line headed by the entry shows the natural chain unless it says otherwise. Residues count along the entry.
UniProt Q07954, residues 4445-4544: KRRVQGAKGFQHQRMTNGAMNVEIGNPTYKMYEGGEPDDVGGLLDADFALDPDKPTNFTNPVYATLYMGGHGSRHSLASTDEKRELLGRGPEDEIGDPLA
UniProt Q15036: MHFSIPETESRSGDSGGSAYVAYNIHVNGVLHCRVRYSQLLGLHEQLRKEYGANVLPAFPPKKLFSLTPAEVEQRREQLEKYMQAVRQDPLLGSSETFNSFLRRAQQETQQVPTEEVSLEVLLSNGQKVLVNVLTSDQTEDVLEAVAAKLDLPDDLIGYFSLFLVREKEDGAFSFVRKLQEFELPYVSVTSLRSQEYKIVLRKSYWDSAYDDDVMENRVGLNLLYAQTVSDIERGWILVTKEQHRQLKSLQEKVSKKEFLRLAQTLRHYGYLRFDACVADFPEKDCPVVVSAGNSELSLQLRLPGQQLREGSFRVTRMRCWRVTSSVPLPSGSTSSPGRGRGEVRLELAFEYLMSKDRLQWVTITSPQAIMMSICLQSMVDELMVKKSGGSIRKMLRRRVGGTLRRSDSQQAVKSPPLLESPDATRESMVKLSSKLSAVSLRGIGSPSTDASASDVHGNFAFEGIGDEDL

Target: GST-fusion of the cytoplasmic tail of LRP1 (human) (UniProt Q07954)
Assay: pull-down

## SNX17ΔC (residue 1-390) with an intramolecular decaHis tag (from UniProt Q15036) (domain or fragment)
  binding: binds
